# Experimental data from the supplement of paper PMC4604168 (melanoma cell lines).
# Some of the results follow. Many values rest on one well or one pass, so single values are uncertain.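 The apoptosis fraction was the count of cleaved-PARP antibody-stained nuclei relative to all DNA-stained nuclei, imaged in 1,536-well plates. Screening doses were set so most cells survived, and baseline and induced cleaved-PARP levels vary greatly across cell lines.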
# Assays:
# Assay in all cases: cleaved PARP positive nuclei fraction relative to DMSO control; melanoma cells; higher = more apoptosis
# Conditions in all cases: library dose: low library concentration; 72 h
# 501Mel = system: 501Mel
# A101D = system: A101D
# A2058 = system: A2058
# A375 = system: A375
# C32 = system: C32
# CBRC008 = system: CBRC008 (line from a melanoma biopsy)
# CBRC014 = system: CBRC014 (line from a melanoma biopsy)
# CBRC016 = system: CBRC016 (line from a melanoma biopsy)
# CBRC017 = system: CBRC017 (line from a melanoma biopsy)
# CBRC034 = system: CBRC034 (line from a melanoma biopsy)
# COLO792 = system: COLO792
# COLO800 = system: COLO800
# COLO829 = system: COLO829
# G361 = system: G361
# IPC-298 = system: IPC-298
# IST-MEL1 = system: IST-MEL1
# LB2518-MEL = system: LB2518-MEL
# LOXIMVI = system: LOXIMVI
# MEL-HO = system: MEL-HO
SMILES,cleaved PARP positive nuclei fraction (501Mel),cleaved PARP positive nuclei fraction (A101D),cleaved PARP positive nuclei fraction (A2058),cleaved PARP positive nuclei fraction (A375),cleaved PARP positive nuclei fraction (C32),cleaved PARP positive nuclei fraction (CBRC008),cleaved PARP positive nuclei fraction (CBRC014),cleaved PARP positive nuclei fraction (CBRC016),cleaved PARP positive nuclei fraction (CBRC017),cleaved PARP positive nuclei fraction (CBRC034),cleaved PARP positive nuclei fraction (COLO792),cleaved PARP positive nuclei fraction (COLO800),cleaved PARP positive nuclei fraction (COLO829),cleaved PARP positive nuclei fraction (G361),cleaved PARP positive nuclei fraction (IPC-298),cleaved PARP positive nuclei fraction (IST-MEL1),cleaved PARP positive nuclei fraction (LB2518-MEL),cleaved PARP positive nuclei fraction (LOXIMVI),cleaved PARP positive nuclei fraction (MEL-HO)
"CCN(CC)CCNC(=O)c1c(C)[nH]c(/C=C2\C(=O)Nc3ccc(F)cc32)c1C [sunitinib] + Cn1nnc2c(C(N)=O)ncn2c1=O [temozolomide] (first compound 0.4 µM, partner dose 2 µM)",140%,103%,84%,102%,84.1%,65.9%,95.6%,80.5%,104%,38.5%,45.9%,75%,115%,157%,88.4%,323%,45.7%,47.4%,115%
"CN(c1ncccc1CNc1nc(Nc2ccc3c(c2)CC(=O)N3)ncc1C(F)(F)F)S(C)(=O)=O + NC1(c2ccc(-c3nc4ccn5c(=O)[nH]nc5c4cc3-c3ccccc3)cc2)CCC1 [MK2206] (first compound 0.08 µM, partner dose 0.4 µM)",68.2%,171%,174%,154%,49.7%,99.6%,85.4%,65.7%,223%,135%,110%,240%,210%,125%,46.3%,306%,123%,120%,87.5%
"CCN(CC)CCNC(=O)c1c(C)[nH]c(/C=C2\C(=O)Nc3ccc(F)cc32)c1C [sunitinib] + C[C@@H](Oc1cc(-c2cnn(C3CCNCC3)c2)cnc1N)c1c(Cl)ccc(F)c1Cl [Crizotinib] (first compound 0.4 µM, partner dose 0.2 µM)",190%,116%,101%,122%,68.7%,36.8%,102%,168%,66.9%,90.7%,107%,118%,129%,135%,84.3%,256%,103%,39.4%,54.1%
"CCCCCCCCc1ccc(CCC(N)(CO)CO)cc1 [fingolimod] + Cc1cc(Nc2cc(N3CCN(C)CC3)nc(/C=C/c3ccccc3)n2)n[nH]1 [ENMD2076] (first compound 2 µM, partner dose 0.04 µM)",139%,92.1%,111%,210%,64.8%,68.4%,114%,91.7%,154%,25.4%,76%,163%,102%,103%,61.6%,121%,192%,47%,110%
"COc1ccc(C2=N[C@@H](c3ccc(Cl)cc3)[C@@H](c3ccc(Cl)cc3)N2C(=O)N2CCNC(=O)C2)c(OC(C)C)c1 [Nutlin-3] + CN1CCN(c2ccc3nc(-c4c(N)c5c(F)cccc5[nH]c4=O)[nH]c3c2)CC1 [Dovitinib] (first compound 0.1 µM, partner dose 0.1 µM)",134%,215%,40.3%,259%,146%,77.6%,88.8%,107%,98.4%,176%,49.7%,67.2%,64.3%,90.1%,73.1%,67.2%,204%,79.4%,32.7%
"Cn1sc(=O)n(Cc2ccccc2)c1=O + CO[C@H]1C[C@@H]2CC[C@@H](C)[C@@](O)(O2)C(=O)C(=O)N2CCCC[C@H]2C(=O)O[C@H]([C@H](C)C[C@@H]2CC[C@@H](OCCO)[C@H](OC)C2)CC(=O)[C@H](C)/C=C(\C)[C@@H](O)[C@@H](OC)C(=O)[C@H](C)C[C@H](C)/C=C/C=C/C=C/1C [everolimus] (first compound 0.4 µM, partner dose 0.02 µM)",175%,55.2%,92.9%,364%,167%,38.9%,105%,4590%,142%,76.9%,92.2%,135%,75.5%,173%,123%,175%,133%,126%,128%
"COc1ccc(C2=N[C@@H](c3ccc(Cl)cc3)[C@@H](c3ccc(Cl)cc3)N2C(=O)N2CCNC(=O)C2)c(OC(C)C)c1 [Nutlin-3] + Clc1ccc(Nc2nnc(Cc3ccncc3)c3ccccc23)cc1 [vatalanib] (first compound 0.1 µM, partner dose 2 µM)",125%,164%,146%,144%,199%,199%,228%,117%,110%,72.6%,103%,53%,32.2%,204%,126%,23.7%,121%,111%,129%
"CN(c1ncccc1CNc1nc(Nc2ccc3c(c2)CC(=O)N3)ncc1C(F)(F)F)S(C)(=O)=O + Nc1cccc2c1CN(C1CCC(=O)NC1=O)C2=O [lenalidomide] (first compound 0.08 µM, partner dose 1 µM)",180%,50.2%,177%,110%,323%,55.8%,115%,130%,152%,169%,92.9%,122%,102%,156%,162%,128%,113%,70.1%,61.9%

# Single records (already shown). Order of values: cleaved PARP positive nuclei fraction (501Mel)	cleaved PARP positive nuclei fraction (A101D)	cleaved PARP positive nuclei fraction (A2058)	cleaved PARP positive nuclei fraction (A375)	cleaved PARP positive nuclei fraction (C32)	cleaved PARP positive nuclei fraction (CBRC008)	cleaved PARP positive nuclei fraction (CBRC014)	cleaved PARP positive nuclei fraction (CBRC016)	cleaved PARP positive nuclei fraction (CBRC017)	cleaved PARP positive nuclei fraction (CBRC034)	cleaved PARP positive nuclei fraction (COLO792)	cleaved PARP positive nuclei fraction (COLO800)	cleaved PARP positive nuclei fraction (COLO829)	cleaved PARP positive nuclei fraction (G361)	cleaved PARP positive nuclei fraction (IPC-298)	cleaved PARP positive nuclei fraction (IST-MEL1)	cleaved PARP positive nuclei fraction (LB2518-MEL)	cleaved PARP positive nuclei fraction (LOXIMVI)	cleaved PARP positive nuclei fraction (MEL-HO)
# CCN(CC)CCNC(=O)c1c(C)[nH]c(/C=C2\C(=O)Nc3ccc(F)cc32)c1C [sunitinib] + Cn1nnc2c(C(N)=O)ncn2c1=O [temozolomide] (first compound 0.4 µM, partner dose 2 µM) is listed as 140%	103%	84%	102%	84.1%	65.9%	95.6%	80.5%	104%	38.5%	45.9%	75%	115%	157%	88.4%	323%	45.7%	47.4%	115%
# CN(c1ncccc1CNc1nc(Nc2ccc3c(c2)CC(=O)N3)ncc1C(F)(F)F)S(C)(=O)=O + Nc1cccc2c1CN(C1CCC(=O)NC1=O)C2=O [lenalidomide] (first compound 0.08 µM, partner dose 1 µM) is listed as 180%	50.2%	177%	110%	323%	55.8%	115%	130%	152%	169%	92.9%	122%	102%	156%	162%	128%	113%	70.1%	61.9%
